Data on three molecules can be found in publication PMC12700540.

Sequences of proteins named here, by UniProt entry; tags and fusion partners are left off.
UniProt P70168: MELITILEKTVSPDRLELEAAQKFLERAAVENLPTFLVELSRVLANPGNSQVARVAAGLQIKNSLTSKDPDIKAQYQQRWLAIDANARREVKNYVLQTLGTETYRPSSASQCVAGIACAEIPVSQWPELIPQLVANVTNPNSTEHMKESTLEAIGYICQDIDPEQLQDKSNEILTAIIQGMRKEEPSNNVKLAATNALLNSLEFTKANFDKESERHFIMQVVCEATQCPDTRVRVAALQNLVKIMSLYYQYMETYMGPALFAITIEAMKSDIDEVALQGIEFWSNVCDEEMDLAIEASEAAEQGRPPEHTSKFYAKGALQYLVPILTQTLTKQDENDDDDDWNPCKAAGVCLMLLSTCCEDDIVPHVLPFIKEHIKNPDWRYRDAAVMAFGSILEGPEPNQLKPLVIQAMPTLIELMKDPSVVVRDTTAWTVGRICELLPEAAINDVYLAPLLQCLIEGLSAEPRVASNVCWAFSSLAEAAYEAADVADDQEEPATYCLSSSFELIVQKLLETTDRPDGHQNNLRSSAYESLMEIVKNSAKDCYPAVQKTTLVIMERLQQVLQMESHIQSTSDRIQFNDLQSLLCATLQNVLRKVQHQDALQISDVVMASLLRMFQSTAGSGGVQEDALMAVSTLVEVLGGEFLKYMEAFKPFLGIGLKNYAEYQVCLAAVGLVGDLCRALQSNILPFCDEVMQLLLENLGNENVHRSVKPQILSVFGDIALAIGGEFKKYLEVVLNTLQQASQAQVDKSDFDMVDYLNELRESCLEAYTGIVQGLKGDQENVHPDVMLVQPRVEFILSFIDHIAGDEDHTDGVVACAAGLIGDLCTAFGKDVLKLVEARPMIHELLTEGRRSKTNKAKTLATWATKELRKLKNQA

Assay [1] concerns the target T1, S100a9 lactylated at lysine 26 (S100a9K26la) (mouse (endogenous in neutrophils)) (UniProt P31725).
T1 sequence (chain, lactyl-lysine at 26 (K26la)): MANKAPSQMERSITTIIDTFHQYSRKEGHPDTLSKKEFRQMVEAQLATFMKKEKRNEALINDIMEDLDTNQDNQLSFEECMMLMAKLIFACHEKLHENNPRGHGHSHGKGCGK
Put plainly: co-IP; co-IP analysis of S100a9K26la and importin β1 in neutrophils.

The target of assay [2] is T2, dihydrolipoyllysine-residue acetyltransferase (DLAT) (mouse (endogenous in BM neutrophils)) (UniProt Q8BMF4).
T2 sequence: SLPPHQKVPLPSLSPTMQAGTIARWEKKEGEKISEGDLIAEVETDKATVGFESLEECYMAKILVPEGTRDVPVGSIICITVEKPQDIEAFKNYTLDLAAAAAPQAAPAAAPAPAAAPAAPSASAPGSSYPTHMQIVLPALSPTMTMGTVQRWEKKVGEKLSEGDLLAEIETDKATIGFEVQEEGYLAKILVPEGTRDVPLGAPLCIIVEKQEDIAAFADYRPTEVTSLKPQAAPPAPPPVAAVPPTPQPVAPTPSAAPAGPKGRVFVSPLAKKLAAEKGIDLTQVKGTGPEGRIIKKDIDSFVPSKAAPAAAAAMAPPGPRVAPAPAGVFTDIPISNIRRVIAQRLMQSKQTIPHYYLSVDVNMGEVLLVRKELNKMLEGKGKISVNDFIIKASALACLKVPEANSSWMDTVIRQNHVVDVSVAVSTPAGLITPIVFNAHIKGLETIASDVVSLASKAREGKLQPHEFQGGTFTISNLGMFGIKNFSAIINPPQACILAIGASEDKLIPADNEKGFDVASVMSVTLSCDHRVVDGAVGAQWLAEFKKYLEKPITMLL
The assay can be described thus: co-IP; reciprocal IP with anti-S100a9K26la or anti-DLAT antibody from BM neutrophils following MI/R; also BM neutrophils treated with doses of ALA, IP with anti-DLAT (ALA inhibited the binding).

Assay [3] deals with T1, S100a9 lactylated at lysine 26 (S100a9K26la) (mouse (endogenous in neutrophils)). The assay is described as above.

These are yes or no findings as the source states them, for the method shown. In cells and extracts the contact can be indirect. Some results given as binding are weak or reduced against the parent protein; the word gives no strength.

As to importin β1 (from UniProt P70168 1-876), the binding entry in assay [1] is reported as “binds”.

B1: S100a9 lactylated at lysine 26 (S100a9K26la) (protein, UniProt P31725 1-113)
chain: MANKAPSQMERSITTIIDTFHQYSRKEGHPDTLSKKEFRQMVEAQLATFMKKEKRNEALINDIMEDLDTNQDNQLSFEECMMLMAKLIFACHEKLHENNPRGHGHSHGKGCGK
modifications: lactyl-lysine at 26 (K26la)
Turning to B1, the binding entry in assay [2] is reported as “binds”.

B2: dihydrolipoyllysine-residue acetyltransferase (DLAT) (enzyme, UniProt Q8BMF4 86-642)
chain: SLPPHQKVPLPSLSPTMQAGTIARWEKKEGEKISEGDLIAEVETDKATVGFESLEECYMAKILVPEGTRDVPVGSIICITVEKPQDIEAFKNYTLDLAAAAAPQAAPAAAPAPAAAPAAPSASAPGSSYPTHMQIVLPALSPTMTMGTVQRWEKKVGEKLSEGDLLAEIETDKATIGFEVQEEGYLAKILVPEGTRDVPLGAPLCIIVEKQEDIAAFADYRPTEVTSLKPQAAPPAPPPVAAVPPTPQPVAPTPSAAPAGPKGRVFVSPLAKKLAAEKGIDLTQVKGTGPEGRIIKKDIDSFVPSKAAPAAAAAMAPPGPRVAPAPAGVFTDIPISNIRRVIAQRLMQSKQTIPHYYLSVDVNMGEVLLVRKELNKMLEGKGKISVNDFIIKASALACLKVPEANSSWMDTVIRQNHVVDVSVAVSTPAGLITPIVFNAHIKGLETIASDVVSLASKAREGKLQPHEFQGGTFTISNLGMFGIKNFSAIINPPQACILAIGASEDKLIPADNEKGFDVASVMSVTLSCDHRVVDGAVGAQWLAEFKKYLEKPITMLL
On to B2, for which, in assay [3], the binding result is recorded as “binds”.
